Experimental data published in PMC8905163.
These are yes or no findings as the source states them, for the method shown. In cells and extracts the contact can be indirect. Some binding calls cover weakened binding; strength is not graded here. Sequences can lack the tags named with a protein. Each block holds one molecule with its values, some of them ahead of it.

Sequences of proteins named here, by UniProt entry; tags and fusion partners are left off. A change or cut given only in a name is not applied to a line headed by its entry.
UniProt P30052: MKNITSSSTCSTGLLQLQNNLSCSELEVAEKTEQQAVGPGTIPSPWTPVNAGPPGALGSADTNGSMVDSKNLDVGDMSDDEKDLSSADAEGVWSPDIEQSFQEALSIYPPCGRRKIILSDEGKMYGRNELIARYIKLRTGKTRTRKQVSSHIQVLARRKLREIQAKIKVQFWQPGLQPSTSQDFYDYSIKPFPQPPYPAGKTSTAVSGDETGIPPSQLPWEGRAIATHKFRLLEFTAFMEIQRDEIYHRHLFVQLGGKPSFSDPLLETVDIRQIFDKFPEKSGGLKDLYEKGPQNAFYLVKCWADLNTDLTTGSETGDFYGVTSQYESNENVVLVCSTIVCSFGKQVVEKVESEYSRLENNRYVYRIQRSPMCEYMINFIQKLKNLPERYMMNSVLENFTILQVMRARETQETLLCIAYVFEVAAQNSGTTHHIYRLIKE

Columns and labels:
[1] = biological target: T1, GST-Sna (Drosophila) (UniProt P08044); assay: pull-down; GST pull-down (Pierce GST Protein Interaction Pull-Down Kit) with bacterial cell lysates of E. coli expressing GST-Sna and Sd-His; western blot with anti-His and anti-GST
T1 sequence: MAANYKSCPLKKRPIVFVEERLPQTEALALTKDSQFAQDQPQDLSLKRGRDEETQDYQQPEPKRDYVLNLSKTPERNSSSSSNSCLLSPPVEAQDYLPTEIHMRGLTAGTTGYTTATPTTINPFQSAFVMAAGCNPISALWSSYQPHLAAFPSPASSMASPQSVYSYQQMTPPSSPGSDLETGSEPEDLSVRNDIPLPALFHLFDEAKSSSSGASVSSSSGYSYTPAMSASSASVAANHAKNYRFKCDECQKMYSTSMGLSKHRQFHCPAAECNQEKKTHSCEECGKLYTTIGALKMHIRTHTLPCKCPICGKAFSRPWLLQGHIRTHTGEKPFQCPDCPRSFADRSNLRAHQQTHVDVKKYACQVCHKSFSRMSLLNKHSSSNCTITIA

[2] = biological target: HA-Sd (Scalloped), expressed in S2R+ cells (Drosophila) (UniProt P30052); assay: co-IP; S2R+ cells co-transfected with pUAST plasmids and Actin-GAL4; lysed in RIPA buffer with PMSF 48 h after transfection; standard co-immunoprecipitation; which protein was precipitated not given
[3] = biological target: T2, Flag-Yki (Yorkie), expressed in S2R+ cells (Drosophila) (UniProt Q45VV3); assay: as above
T2 sequence: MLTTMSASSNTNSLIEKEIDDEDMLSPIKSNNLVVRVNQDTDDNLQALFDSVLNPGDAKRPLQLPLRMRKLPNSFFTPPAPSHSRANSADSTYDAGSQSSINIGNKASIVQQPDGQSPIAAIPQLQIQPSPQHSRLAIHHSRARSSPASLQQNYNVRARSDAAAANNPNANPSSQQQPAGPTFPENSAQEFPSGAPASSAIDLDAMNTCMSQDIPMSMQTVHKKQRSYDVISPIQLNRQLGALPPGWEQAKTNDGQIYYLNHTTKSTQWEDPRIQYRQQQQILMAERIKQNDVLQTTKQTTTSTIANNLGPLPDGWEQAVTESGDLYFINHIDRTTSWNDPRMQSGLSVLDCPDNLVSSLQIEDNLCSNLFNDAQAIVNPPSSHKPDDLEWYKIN

[4] = biological target: HA-Sd (Scalloped), expressed in larval wing discs (Drosophila) (UniProt P30052); assay: co-IP; in vivo: third-instar larval wing discs over-expressing UAS-Myc-Sna and UAS-HA-Sd driven by Sd-GAL4; lysed in RIPA buffer with PMSF; standard co-immunoprecipitation

binding [1]: binds
Molecule: Sd-His (from UniProt P30052 1-440)

binding [2]: binds | binding [3]: no binding
B1: Myc-Sna (Snail), expressed in S2R+ cells (protein, UniProt P08044 1-390)
chain: MAANYKSCPLKKRPIVFVEERLPQTEALALTKDSQFAQDQPQDLSLKRGRDEETQDYQQPEPKRDYVLNLSKTPERNSSSSSNSCLLSPPVEAQDYLPTEIHMRGLTAGTTGYTTATPTTINPFQSAFVMAAGCNPISALWSSYQPHLAAFPSPASSMASPQSVYSYQQMTPPSSPGSDLETGSEPEDLSVRNDIPLPALFHLFDEAKSSSSGASVSSSSGYSYTPAMSASSASVAANHAKNYRFKCDECQKMYSTSMGLSKHRQFHCPAAECNQEKKTHSCEECGKLYTTIGALKMHIRTHTLPCKCPICGKAFSRPWLLQGHIRTHTGEKPFQCPDCPRSFADRSNLRAHQQTHVDVKKYACQVCHKSFSRMSLLNKHSSSNCTITIA

binding [4]: binds
B2: Myc-Sna (Snail), expressed in larval wing discs (protein, UniProt P08044 1-390)
chain: MAANYKSCPLKKRPIVFVEERLPQTEALALTKDSQFAQDQPQDLSLKRGRDEETQDYQQPEPKRDYVLNLSKTPERNSSSSSNSCLLSPPVEAQDYLPTEIHMRGLTAGTTGYTTATPTTINPFQSAFVMAAGCNPISALWSSYQPHLAAFPSPASSMASPQSVYSYQQMTPPSSPGSDLETGSEPEDLSVRNDIPLPALFHLFDEAKSSSSGASVSSSSGYSYTPAMSASSASVAANHAKNYRFKCDECQKMYSTSMGLSKHRQFHCPAAECNQEKKTHSCEECGKLYTTIGALKMHIRTHTLPCKCPICGKAFSRPWLLQGHIRTHTGEKPFQCPDCPRSFADRSNLRAHQQTHVDVKKYACQVCHKSFSRMSLLNKHSSSNCTITIA
